# Experimental data: patent publication US11913924B2, “Ion generation using modified wetted porous materials” (Purdue Research Foundation, priority 2011, dated 2024)
# What was measured:
# [1] = Paper spray mass spectrometry of 15 μL dried blood spots, limit of detection; design: species or system bovine; conditions: paper spray MS, TSQ, SRM; blood dried two hours, no coagulant
# [2] = Paper spray mass spectrometry of 10 μL fresh whole blood with pre-spotted alum coagulant, limit of detection; design: species or system bovine; conditions: paper spray MS, TSQ, SRM; pre-spotted alum and internal standard
# [3] = Paper spray of blood, air-dry method versus pre-spotted drying agent (MgSO4), limit of detection
# [4] = Paper spray with handheld Mini 11 mass spectrometer, drugs in dried blood spots, LOQ; design: species or system bovine; conditions: for LOQ with Chromatography paper: ET31 chromatography paper, 9:1 methanol/water; for LOQ with silica coated paper: 9:1 dichloromethane/isopropanol
# [5] = Paper spray with triple quadrupole (TSQ), drugs in dried blood spots on silica-coated paper, LOQ; design: species or system bovine; conditions: 9:1 dichloromethane/isopropanol, 5 μL dried blood spots
# [6] = Paper spray of cotinine in fresh liquid saliva and urine, LOQ
# [7] = Paper spray of fresh liquid bovine whole blood on printer paper, LOQ
smiles,measurement,setting,value
"O=P1(N(CCCl)CCCl)NCCCO1 (stereo not shown) [Cyclophosphamide, cyclophosphamide]",15 μL Dried Blood Spot LLOD,[1],13 ng/mL
same,10 μL Fresh Blood w/Alum LLOD,[2],11 ng/mL
CC/C(=C(\c1ccccc1)c1ccc(OCCN(C)C)cc1)c1ccccc1 [Tamoxifen],15 μL Dried Blood Spot LLOD,[1],13 ng/mL
same,10 μL Fresh Blood w/Alum LLOD,[2],8 ng/mL
same,LOD,"[3]; drying method 2 Hours Air, IS mixed",18 ng/mL
same,LOD,"[3]; drying method MgSO4, IS pre-spotted",56 ng/mL
CN(C)CCC=C1c2ccccc2CCc2ccccc21 [amitriptyline],LOQ with Chromatography paper,[4],100 ng/mL
same,LOQ with silica coated paper,[4],10 ng/mL
same,LOQ,[5],0.1 ng/mL
CN1C(=O)CC[C@H]1c1cccnc1 [cotinine],LOQ,"[6]; 5 μL fresh liquid saliva, Grade 1 chromatography paper, 30 μL acetonitrile",2 ng/mL
same,LOQ,[6]; urine with 20 mM ammonium acetate added,5 ng/mL
same,lowest concentration at which cotinine could be detected,"[6]; urine, acetonitrile as the solvent, no ammonium acetate",≥ 30 ng/mL
same,LOQ,"[7]; 10 μL fresh bovine whole blood, printer paper, 90% dichloromethane and 10% isopropanol, TSQ",1 ppb
CCN(CC)CC(=O)Nc1c(C)cccc1C [lidocaine],LOQ with Chromatography paper,[4],100 ng/mL
same,LOQ with silica coated paper,[4],20 ng/mL
same,LOQ,[5],0.1 ng/mL
CN1CCCC1c1cccnc1 (stereo not shown) [nicotine],LOQ,"[7]; 10 μL fresh blood on print paper, extracted with 10 μL acetonitrile, dried, then sprayed with 20 μL acetonitrile",1 ppb
same,LOQ,"[7]; fresh bovine whole blood, printer paper, acetonitrile, TSQ",0.1 ppb
CC[C@@]1(O)C(=O)OCc2c1cc1n(c2=O)Cc2cc3c(CN(C)C)c(O)ccc3nc2-1 [topotecan],10 μL Fresh Blood w/Alum LLOD,[2],17 ng/mL
